Laboratory results reported in PubChem BioAssay AID2685 (National Center for Advancing Translational Sciences (NCATS), 2010).
Out of some 320,000 compounds screened, about 2,100 (0.66%) were called active. Inconclusive means that the source gave no clear call. Such entries were picked first, then a sample of the others. Calls follow the shape of the dose curve; as a rule, active = well fitted inhibition curve with a large enough effect in the signal ratio, with a control signal flat (not every such curve was filed as active); inconclusive = small, poorly fitted or top-dose-only effect, or effect the other way, or a change in a side signal; inactive = flat fitted curve, though single readings scatter; the % refers to the signal ratio. Where the call is inconclusive, the potency comes from a doubtful curve fit.

experiment: qHTS Assay for Lipid Storage Modulators in Drosophila S3 Cells; conditions: BODIPY lipid droplet fluorescence, 18-24 h, cells fed with added oleic acid; lipid storage change, negative = inhibition: at 46.1 µM (top of the series) unless noted
Method in brief: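 Drosophila S3 cells loaded with oleic acid (400 uM, as added) and compounds at several concentrations; lipid droplets imaged by 488-nm laser-scanning cytometry, 500–530 nm intensity and object ratio to cell channel. Percent activity normalized to 20 uM Triacsin C.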
% is scaled to controls: 0 for no effect and ±100 for the full control effect; potency is read from the fitted curve at half-maximal effect.

Row | SMILES | lipid storage change, negative = inhibition | Potency | outcome
1 | Cc1cc(C(=O)CSc2nnc(-c3ccc(F)cc3)o2)c(C)n1CC1CCCO1 (centres undefined) | inconclusive: -23.7% |  | 
2 | O=C/C(=C\Nc1ccc(S(=O)(=O)CCO)cc1)c1nc2cc(Cl)ccc2o1 | inconclusive: 22.1% |  | 
3 | Nn1c(Nc2ccccc2)nc2sc3c(c2c1=O)CCC3 |  | inconclusive: 0.116 µM [activator, full curve, poor fit] | 
4 | CCCNC(=O)C1CCN(S(=O)(=O)c2ccc3[nH]c(=O)ccc3c2)CC1 |  | inconclusive: 32.6 µM [activator, single point] | 
5 | CCC(C)(C)NC(=O)C(c1cccn1C)N(Cc1ccc(OC)cc1)C(=O)Cn1nnc2ccccc21 (centres undefined) |  | inconclusive: 8.2 µM [cytotoxic, partial curve] | 
6 | CC(C)=C1C2CCC1C1C(=O)N(c3nc(-c4ccc(C(C)C)cc4)c(C)s3)C(=O)C21 (centres undefined) | inconclusive: -30.7% |  | 
7 | Cc1cccc(CSc2nnc(CCCCCNC(=O)OC(C)(C)C)o2)c1 | inconclusive: 14.1% |  | 
8 | COc1ccc(OC)c(CNS(=O)(=O)c2cn(C)cn2)c1 |  | inconclusive: 29.1 µM [activator, single point] | 
9 | CCCCC(=O)NC1(C(F)(F)F)C(=O)Nc2c1c(=O)n(C)c(=O)n2C (centres undefined) |  | active: 18.4 µM | 
10 | O=S(=O)(c1c(Cl)sc(Cl)c1Br)N1CCCC1 | inconclusive: -72.4% |  | 
11 | O=[N+]([O-])c1ccccc1NC1CCN(Cc2ccccc2)CC1 | inconclusive: -22.1% |  | 
12 | COc1ccc(OC)c(/C=N/NC(=O)Cn2ccnc2C)c1 | inconclusive: 3.44% |  | 
13 | CNc1c(NS(=O)(=O)c2ccc(C(C)(C)C)cc2)c(=O)oc2ccccc12 |  | inconclusive: 5.17 µM [activator, single point] | 
14 | Clc1cccc(CSc2nnc(-c3cccnc3)n2Cc2ccco2)c1 |  | inconclusive: 10.3 µM [activator, partial curve] | 
15 | Cc1cc(C)c2nc(-c3ccccn3)cc(C(=O)Nn3cnnc3)c2c1 | inconclusive: -11.9% |  | 
16 | O=C(COc1ccc(Br)cc1)N/N=C1/SCC(=O)N1Cc1ccccc1 |  | inconclusive: 9.2 µM [activator, partial curve, poor fit] | 
17 | Cc1ccc(Cn2c(SCCN3CCCCC3)nc3c2c(=O)n(C)c(=O)n3C)cc1 | inconclusive: 28.6% |  | 
18 | CC(NC(=O)CN1C(=O)NC2(CCc3ccccc32)C1=O)c1ccccc1 (centres undefined) |  | inconclusive: 29.1 µM [activator, single point] | 
19 | CCS(=O)(=O)N(CC(=O)Nc1cccc2ccccc12)c1ccc(OC)cc1 | inconclusive: 9.98% |  | 
20 | CN(C)C(CNC(=O)CNC(=O)Cc1cccc2ccccc12)c1ccccc1 (centres undefined) | inconclusive: 92% |  | 
21 | Cn1cc(-c2ccccc2C(N)=O)c(=O)c2cc(Cl)ccc21 | inconclusive: 24.1% |  | 
22 | COc1cc(OC)c(OC)cc1/C=N/N(C)c1ccccc1 | inconclusive: -10.5% |  | 
23 | Cc1ccc(NC(=O)CN2CCCCCC2)cc1[N+](=O)[O-] | inconclusive: -0.497% |  | 
24 | Cc1ccc(S(=O)(=O)Nc2ccccc2/C=N/c2nc3ccccc3n2C(C)C)cc1 | inconclusive: -21.7% |  | 
25 | COc1ccc(C2C(C(C)=O)=C(O)C(=O)N2c2ccc(Br)cc2)cc1 (centres undefined) | inconclusive: -42.1% |  | 
26 | Cc1nc2sc(C(c3ccco3)N3CCN(c4ccccc4)CC3)c(O)n2n1 (centres undefined) | inconclusive: 59.8% |  | 
27 | O=C1CN(C(=O)c2ccccc2F)C(c2ccc(F)cc2)c2cc(F)ccc2N1 (centres undefined) |  | inconclusive: 0.164 µM [activator, full curve, poor fit] | 

Row | SMILES | lipid storage change, negative = inhibition | Potency | outcome
28 | COCc1cc(C)nc2sc(C(=O)Nc3ccccc3C)c(N)c12 | inconclusive: -19.6% |  | 
29 | O=c1c(Cl)c(Cl)cnn1Cc1nnc(-c2ccc(Cl)cc2)o1 |  | inconclusive: 29.1 µM [falling, single point] | 
30 | O=C(Nc1ccn(Cc2c(F)c(F)c(F)c(F)c2F)n1)c1cccc(Cn2cc([N+](=O)[O-])cn2)c1 | inconclusive: 13.4% |  | 
31 | Cc1cc(C)c(S(=O)(=O)NCCc2ccncc2)c(C)c1 | inconclusive: 12% |  | 
32 | COc1cccc(C(=O)N/N=C/C(Br)=C/c2ccccc2)c1 |  | inconclusive: 0.0046 µM [falling, full curve, poor fit] | 
33 | O=C(O)c1cc(S(=O)(=O)NCc2ccco2)c(Cl)cc1Cl | inconclusive: -40.1% |  | 
34 | CC(=O)C(C)Oc1ccc(Cc2ncc(C(F)(F)F)cc2Cl)cc1 (centres undefined) | inconclusive: 11.6% |  | 
35 | CCSC1(SCC)N=C(N)C2(C#N)C(c3ccc(OC)c(OC)c3OC)C12C#N (centres undefined) |  | inconclusive: 0.92 µM [activator, full curve] | 
36 | Cc1ccccc1OCC(=O)Nc1ccc(N2CCN(C(=O)C(C)C)CC2)c(Cl)c1 | inconclusive: -33% |  | 
37 | COc1ccc(C2(C(=O)Nc3ccc(OC)cc3OC)CCCC2)cc1 | inconclusive: -19% |  | 
38 | COC(=O)C(C)SC1=N/C(=C/c2ccc(-n3cncn3)cc2)C(=O)N1 (centres undefined) | inactive: -24.9% |  | 
39 | COc1cc(NC(=O)CSc2nc3[nH]c(=O)cc(O)c3s2)cc(OC)c1OC | inconclusive: 85.6% |  | 
40 | CCC(=O)c1ccc(OCC(=O)OCC(=O)Nc2sccc2C(N)=O)cc1 | inconclusive: 39.7% |  | 
41 | CSCCC(NC(=O)C1CC1)c1nc2ccccc2[nH]1 (centres undefined) |  | inconclusive: 3.66 µM [falling, full curve] | 
42 | COc1ccc(C(=O)Nc2ccc(C3(C#N)CCCC3)cc2)cc1OC | inconclusive: -39.2% |  | 
43 | COc1ccccc1C/C(N)=N/OC(=O)COc1cccc(C)c1C | inconclusive: 47.1% |  | 
44 | Cc1ccccc1S(=O)(=O)Cc1ccc(C(=O)NCCCN2CCCC(C)C2)o1 (centres undefined) | inconclusive: -53.3% |  | 
45 | COc1ccc(CNC(=S)Nc2cccc(OC)c2)cc1 |  | inconclusive: 29.1 µM [activator, partial curve, poor fit] | 
46 | CC(=O)N1CCN(c2ccc(N)cc2)CC1 | inconclusive: 11.2% |  | 
47 | COc1cccc(CNC(=O)N2CCN(c3ccccc3)CC2)c1 | inconclusive: 99.2% |  | 
48 | CN1CCN(c2ccc(NC(=O)c3ccc(-c4cccc([N+](=O)[O-])c4)o3)cc2)CC1 | inactive: 17.2% |  | 
49 | CN(Cc1ccccc1)C(=O)c1ncn(C)c1C(=O)N(C)Cc1ccccc1 | inconclusive: -12.4% |  | 
50 | CCc1ccc(NC(=O)CSc2nc3n[nH]c(C)c3c(=N)n2-c2cccc(OC)c2)cc1 | inconclusive: -21% |  | 
51 | COc1ccc(C(=O)NC(=O)COC(=O)CCS(=O)(=O)c2ccc(C)cc2)cc1 | inconclusive |  | 
52 | O=[N+]([O-])c1cc([N+](=O)[O-])c(Oc2c(F)cc(F)cc2F)cc1NN1CCCCC1 | inconclusive: -12% |  | 
53 | c1ccc(CNc2nc(-c3cccnc3)nc3ccccc23)cc1 | inconclusive: 0.812% |  | 
54 | CC1(C)CC(=O)C2=C(C1)NC(=O)NC2c1ccc(Cl)cc1 (centres undefined) | inconclusive: 29.2% |  | 

Exported with each value named: part of the list above.
O=C(Nc1ccn(Cc2c(F)c(F)c(F)c(F)c2F)n1)c1cccc(Cn2cc([N+](=O)[O-])cn2)c1
  lipid storage change, negative = inhibition: inconclusive: 13.4%
Cc1cc(C)c(S(=O)(=O)NCCc2ccncc2)c(C)c1
  lipid storage change, negative = inhibition: inconclusive: 12%
COc1ccc(C2(C(=O)Nc3ccc(OC)cc3OC)CCCC2)cc1
  lipid storage change, negative = inhibition: inconclusive: -19%
O=[N+]([O-])c1cc([N+](=O)[O-])c(Oc2c(F)cc(F)cc2F)cc1NN1CCCCC1
  lipid storage change, negative = inhibition: inconclusive: -12%

Next entries:

Row | SMILES | lipid storage change, negative = inhibition | Potency | outcome
55 | Cc1ccc(CNC(=O)CSc2nnc3c(n2)[nH]c2ccc(F)cc23)cc1 |  | inconclusive: 0.13 µM [activator, partial curve, poor fit] | 
56 | Cc1ccccc1OCC(O)CN(CCO)Cc1ccccc1 (centres undefined) | inconclusive: 8.18% |  | 
57 | CC(CN1C(C)CCCC1C)OC(=O)c1cccc(F)c1 (centres undefined) | inconclusive: -20.3% |  | 
58 | CCN1CCN(C(=O)c2cccc(OC3CCN(S(=O)(=O)N(C)C)CC3)c2)CC1 | inconclusive: -37.3% |  | 
59 | CC(C)(C)c1nc(CN2CCOCC2)cc(CN2CCOCC2)c1O |  |  | inactive [at 46.1 µM]
60 | Cc1ccc(NC(=O)CCn2nnc3ccccc32)cc1 | inconclusive: 8.3% |  | 
61 | O=C(NCCCn1ccnc1)c1ccc(S(=O)(=O)N2CCOCC2)cc1 | inconclusive: 45.8% |  | 
62 | CCn1cc(C2=NCC(C)O2)c2ccccc21 (centres undefined) |  | inconclusive: 6.51 µM [rising, single point] | 
63 | CCCCN(C(=O)CNC(=O)c1ccco1)C(C(=O)NC1CCCC1)c1ccc(OC)cc1 (centres undefined) |  | inconclusive: 0.92 µM [activator, full curve] | 
64 | CC1CCCCC1NC(=O)CN1C(=O)CSc2cc(S(=O)(=O)N3CCCCCC3)ccc21 (centres undefined) | inconclusive: 17.9% |  | 
65 | Cc1ncc([N+](=O)[O-])n1Cc1cccc(F)c1 | inconclusive: 26.9% |  | 
66 | CC(=O)Nc1ccc(S(=O)(=O)NC(=O)C23CC4CC(CC(C4)C2)C3)cc1 | inconclusive: 25.6% |  | 
67 | Cc1ccc2cc(CN(c3ccc(C)c(C)c3)S(C)(=O)=O)c(=O)[nH]c2c1 | inconclusive: -2.98% |  | 
68 | O=C(O)CSc1nccn1-c1cccc(Cl)c1 | inconclusive: 3.79% |  | 
69 | CC(Oc1ccccc1)C(=O)NCc1cccnc1 (centres undefined) |  | inconclusive: 23.1 µM [falling, single point] | 
70 | CC(=O)c1c(C)[nH]c(C(=O)Nc2ccccc2Cl)c1C |  | inconclusive: 18.4 µM [falling, single point] | 
71 | Cc1cccc2cc3c(NC(=O)C(C)(C)C)nn(CC(C)C)c3nc12 | inactive: -8.08% |  | 
72 | O=C(Cc1ccccn1)c1ccc(Cl)cc1 | inconclusive: -22.6% |  | 
73 | CCC(C)(C)n1nnnc1C(c1cccc(C#N)c1)N1CCN(c2cccc(C)c2C)CC1 (centres undefined) | inactive: -4.77% |  | 
74 | Cc1cc(C)n(CC(=O)N/N=C/c2ccco2)n1 | inconclusive: -5.63% |  | 
75 | Cc1csc(CN(C)C(=O)CC2C(=O)NCCN2Cc2ccc(F)c(F)c2)n1 (centres undefined) | inconclusive: -22.7% |  | 
76 | CCSc1nnc(NC(=O)C2CCN(S(=O)(=O)c3c(C)c(C)cc(C)c3C)CC2)s1 | inconclusive: 0.897% |  | 
77 | O=C(COC(=O)C1CC(=O)N(Cc2ccccc2)C1)Nc1ccccc1F (centres undefined) | inconclusive: -65.8% |  | 
78 | c1ccc2c(c1)NC1(CCCC1)n1c-2nc2ccccc21 | inconclusive: -12.1% |  | 
79 | O=C(Nc1ccc(O)cc1)/C(=C\c1cccs1)NC(=O)c1ccccc1 | inconclusive: 7.2% |  | 
